Laboratory results as given in paper PMC4396377.
These are yes or no findings as the source states them, for the method shown. In cells and extracts the contact can be indirect. Some binding calls cover weakened binding; strength is not graded here. For part of these data: Where a sequence is shown, tags or fusion partners need not be part of it.

Sequences of proteins named here, by UniProt entry; tags and fusion partners are left off. A change or cut given only in a name is not applied to a line headed by its entry.
UniProt P49841: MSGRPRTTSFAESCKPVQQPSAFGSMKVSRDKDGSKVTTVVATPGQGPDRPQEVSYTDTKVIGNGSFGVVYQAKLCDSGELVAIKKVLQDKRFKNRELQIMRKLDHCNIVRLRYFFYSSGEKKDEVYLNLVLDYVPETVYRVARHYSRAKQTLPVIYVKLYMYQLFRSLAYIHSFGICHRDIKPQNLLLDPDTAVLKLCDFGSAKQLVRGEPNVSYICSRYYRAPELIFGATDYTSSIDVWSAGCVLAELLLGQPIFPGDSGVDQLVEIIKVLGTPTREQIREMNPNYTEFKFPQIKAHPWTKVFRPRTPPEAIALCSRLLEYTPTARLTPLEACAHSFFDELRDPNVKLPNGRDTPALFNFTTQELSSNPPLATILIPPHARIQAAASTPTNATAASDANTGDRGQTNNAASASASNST
UniProt Q8IUC6: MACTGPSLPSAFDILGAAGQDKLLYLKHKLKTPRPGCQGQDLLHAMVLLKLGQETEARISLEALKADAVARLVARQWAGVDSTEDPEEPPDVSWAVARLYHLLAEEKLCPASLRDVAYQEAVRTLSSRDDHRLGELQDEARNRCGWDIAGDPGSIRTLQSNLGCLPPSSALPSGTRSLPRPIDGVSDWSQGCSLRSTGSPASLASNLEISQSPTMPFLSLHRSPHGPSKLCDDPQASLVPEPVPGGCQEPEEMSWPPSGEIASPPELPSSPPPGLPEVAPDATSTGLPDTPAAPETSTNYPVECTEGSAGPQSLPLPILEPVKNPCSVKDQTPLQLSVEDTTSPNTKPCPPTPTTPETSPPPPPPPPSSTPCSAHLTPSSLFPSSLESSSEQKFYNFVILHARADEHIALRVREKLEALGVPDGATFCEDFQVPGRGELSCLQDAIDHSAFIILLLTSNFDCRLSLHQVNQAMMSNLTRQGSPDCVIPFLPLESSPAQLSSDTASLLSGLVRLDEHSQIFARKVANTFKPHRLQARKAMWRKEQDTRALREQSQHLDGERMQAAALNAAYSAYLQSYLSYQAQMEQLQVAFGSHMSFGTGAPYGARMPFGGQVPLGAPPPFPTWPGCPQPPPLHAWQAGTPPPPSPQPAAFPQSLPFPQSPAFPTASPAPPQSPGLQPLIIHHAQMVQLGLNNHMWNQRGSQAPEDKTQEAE
UniProt Q9WV60: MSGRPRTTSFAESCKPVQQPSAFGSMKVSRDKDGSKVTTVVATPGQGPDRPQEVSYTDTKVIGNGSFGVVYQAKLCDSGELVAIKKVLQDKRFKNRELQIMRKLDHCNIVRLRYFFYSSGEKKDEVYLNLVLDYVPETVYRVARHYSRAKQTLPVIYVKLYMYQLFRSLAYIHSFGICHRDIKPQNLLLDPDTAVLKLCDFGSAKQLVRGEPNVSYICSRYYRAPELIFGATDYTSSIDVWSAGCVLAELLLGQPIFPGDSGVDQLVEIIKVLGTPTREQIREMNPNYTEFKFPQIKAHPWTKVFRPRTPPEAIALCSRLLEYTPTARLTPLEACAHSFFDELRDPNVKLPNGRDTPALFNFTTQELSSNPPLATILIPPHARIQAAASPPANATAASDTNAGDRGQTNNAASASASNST

T1: Myc-TAK1 (UniProt O43318)
T1 sequence: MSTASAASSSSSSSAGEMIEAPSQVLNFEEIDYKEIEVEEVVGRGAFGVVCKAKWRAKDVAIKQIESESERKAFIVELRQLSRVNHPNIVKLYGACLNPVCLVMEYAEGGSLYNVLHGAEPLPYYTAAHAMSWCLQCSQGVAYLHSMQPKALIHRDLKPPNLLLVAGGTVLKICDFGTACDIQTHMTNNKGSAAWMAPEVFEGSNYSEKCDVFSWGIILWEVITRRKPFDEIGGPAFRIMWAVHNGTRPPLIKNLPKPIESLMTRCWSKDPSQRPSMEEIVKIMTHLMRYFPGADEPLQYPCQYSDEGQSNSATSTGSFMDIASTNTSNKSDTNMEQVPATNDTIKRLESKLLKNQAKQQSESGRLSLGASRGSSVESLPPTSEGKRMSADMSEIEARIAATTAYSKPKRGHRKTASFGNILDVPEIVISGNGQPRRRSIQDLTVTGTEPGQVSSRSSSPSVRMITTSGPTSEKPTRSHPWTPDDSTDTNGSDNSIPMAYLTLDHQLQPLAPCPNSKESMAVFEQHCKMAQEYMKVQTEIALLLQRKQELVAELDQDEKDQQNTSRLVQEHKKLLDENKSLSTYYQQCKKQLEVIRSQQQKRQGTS

T2: Flag-TRAF6 (UniProt P70196)
T2 sequence: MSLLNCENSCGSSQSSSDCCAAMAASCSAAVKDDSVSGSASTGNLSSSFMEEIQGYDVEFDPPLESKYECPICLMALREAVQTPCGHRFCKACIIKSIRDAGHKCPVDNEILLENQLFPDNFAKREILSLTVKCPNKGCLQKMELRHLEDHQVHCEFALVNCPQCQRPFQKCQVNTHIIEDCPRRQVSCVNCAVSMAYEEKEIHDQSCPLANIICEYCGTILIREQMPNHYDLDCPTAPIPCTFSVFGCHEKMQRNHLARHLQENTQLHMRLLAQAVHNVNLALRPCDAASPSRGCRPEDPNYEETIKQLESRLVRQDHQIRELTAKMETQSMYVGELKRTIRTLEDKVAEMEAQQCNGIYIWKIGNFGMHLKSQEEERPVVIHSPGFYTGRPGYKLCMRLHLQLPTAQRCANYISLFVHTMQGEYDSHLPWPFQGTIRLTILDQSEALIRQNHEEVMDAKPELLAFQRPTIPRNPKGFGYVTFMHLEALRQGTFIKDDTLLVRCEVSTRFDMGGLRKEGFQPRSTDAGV


Legend:
HA-GSK3β (WT) [1] = biological target: HA-GSK3β (WT) (UniProt P49841); assay: co-IP; HEK293T cells co-transfected with TRIF, TRAF6, TAK1 and GSK3β (WT or K183R) together; Fig. 5f (anti-Flag), Fig. 7d (anti-HA), Fig. 7e (anti-Flag), western blotting
HA-GSK3β (WT) [2] = biological target: HA-GSK3β (WT) (UniProt P49841); assay: co-IP; HEK293T cells transfected with the indicated combinations of expression plasmids (Fig. 5b,d,e: anti-Flag; Fig. 7a–c: anti-HA), western blotting; TAB1 or TAB2 with GSK3β tested with or without TAK1
HA-GSK3β K183R mutant = HA-GSK3β K183R mutant (UniProt P49841); assay: as above
Myc-TAK1 = biological target: T1, Myc-TAK1; assay: co-IP; cotransfection studies in mammalian cells; GSK3β and TAK1 each as the protein whose associates were examined; Supplementary Fig. 11a,b (not shown)
TRIF (transfected) = TRIF (transfected) (UniProt Q8IUC6); assay: co-IP; HEK293T cells co-transfected with TRIF, TRAF6, TAK1 and GSK3β (WT or K183R) together; Fig. 5f (anti-Flag), Fig. 7d (anti-HA), Fig. 7e (anti-Flag), western blotting
Flag-TRAF6 = biological target: T2, Flag-TRAF6; assay: co-IP; HEK293T cells transfected with the indicated combinations of expression plasmids (Fig. 5b,d,e: anti-Flag; Fig. 7a–c: anti-HA), western blotting; TAB1 or TAB2 with GSK3β tested with or without TAK1
[3] = biological target: Glycogen synthase kinase 3β (GSK3β), endogenous (mouse (endogenous in MEFs and BMDMs)) (UniProt Q9WV60); assay: co-IP; BMDMs stimulated with 10 μg/ml poly I:C for 10 min; immunoprecipitation with an anti-GSK3β antibody, western blotting
HA-GSK3β (WT) [4] = biological target: HA-GSK3β (WT) (UniProt P49841); assay: co-IP; cotransfection studies in mammalian cells; GSK3β and TAK1 each as the protein whose associates were examined; Supplementary Fig. 11a,b (not shown)

Row | binding (HA-GSK3β (WT) [1]) | binding (HA-GSK3β (WT) [2]) | binding (TRIF (transfected)) | binding (Flag-TRAF6) | Molecule | also measured
1 | binds | binds |  |  | TRIF (transfected) (from UniProt Q8IUC6 1-712) | binding (HA-GSK3β K183R mutant): binds
2 |  |  | binds | binds | HA-GSK3β (WT) (from UniProt P49841 1-420) (enzyme) | binding (Myc-TAK1): binds
3 |  |  |  |  | tumour necrosis factor (TNF) receptor-associated factor 6 (TRAF6), endogenous (protein, UniProt P70196 1-530) MSLLNCENSCGSSQSSSDCCAAMAASCSAAVKDDSVSGSASTGNLSSSFMEEIQGYDVEFDPPLESKYECPICLMALREAVQTPCGHRFCKACIIKSIRDAGHKCPVDNEILLENQLFPDNFAKREILSLTVKCPNKGCLQKMELRHLEDHQVHCEFALVNCPQCQRPFQKCQVNTHIIEDCPRRQVSCVNCAVSMAYEEKEIHDQSCPLANIICEYCGTILIREQMPNHYDLDCPTAPIPCTFSVFGCHEKMQRNHLARHLQENTQLHMRLLAQAVHNVNLALRPCDAASPSRGCRPEDPNYEETIKQLESRLVRQDHQIRELTAKMETQSMYVGELKRTIRTLEDKVAEMEAQQCNGIYIWKIGNFGMHLKSQEEERPVVIHSPGFYTGRPGYKLCMRLHLQLPTAQRCANYISLFVHTMQGEYDSHLPWPFQGTIRLTILDQSEALIRQNHEEVMDAKPELLAFQRPTIPRNPKGFGYVTFMHLEALRQGTFIKDDTLLVRCEVSTRFDMGGLRKEGFQPRSTDAGV | binding [3]: binds
4 | binds | binds | binds |  | Flag-TRAF6 (protein, UniProt P70196 1-530) MSLLNCENSCGSSQSSSDCCAAMAASCSAAVKDDSVSGSASTGNLSSSFMEEIQGYDVEFDPPLESKYECPICLMALREAVQTPCGHRFCKACIIKSIRDAGHKCPVDNEILLENQLFPDNFAKREILSLTVKCPNKGCLQKMELRHLEDHQVHCEFALVNCPQCQRPFQKCQVNTHIIEDCPRRQVSCVNCAVSMAYEEKEIHDQSCPLANIICEYCGTILIREQMPNHYDLDCPTAPIPCTFSVFGCHEKMQRNHLARHLQENTQLHMRLLAQAVHNVNLALRPCDAASPSRGCRPEDPNYEETIKQLESRLVRQDHQIRELTAKMETQSMYVGELKRTIRTLEDKVAEMEAQQCNGIYIWKIGNFGMHLKSQEEERPVVIHSPGFYTGRPGYKLCMRLHLQLPTAQRCANYISLFVHTMQGEYDSHLPWPFQGTIRLTILDQSEALIRQNHEEVMDAKPELLAFQRPTIPRNPKGFGYVTFMHLEALRQGTFIKDDTLLVRCEVSTRFDMGGLRKEGFQPRSTDAGV | binding (HA-GSK3β (WT) [4]): binds; binding (Myc-TAK1): binds
5 | binds | binds | binds | binds | Myc-TAK1 (enzyme, UniProt O43318 1-606) MSTASAASSSSSSSAGEMIEAPSQVLNFEEIDYKEIEVEEVVGRGAFGVVCKAKWRAKDVAIKQIESESERKAFIVELRQLSRVNHPNIVKLYGACLNPVCLVMEYAEGGSLYNVLHGAEPLPYYTAAHAMSWCLQCSQGVAYLHSMQPKALIHRDLKPPNLLLVAGGTVLKICDFGTACDIQTHMTNNKGSAAWMAPEVFEGSNYSEKCDVFSWGIILWEVITRRKPFDEIGGPAFRIMWAVHNGTRPPLIKNLPKPIESLMTRCWSKDPSQRPSMEEIVKIMTHLMRYFPGADEPLQYPCQYSDEGQSNSATSTGSFMDIASTNTSNKSDTNMEQVPATNDTIKRLESKLLKNQAKQQSESGRLSLGASRGSSVESLPPTSEGKRMSADMSEIEARIAATTAYSKPKRGHRKTASFGNILDVPEIVISGNGQPRRRSIQDLTVTGTEPGQVSSRSSSPSVRMITTSGPTSEKPTRSHPWTPDDSTDTNGSDNSIPMAYLTLDHQLQPLAPCPNSKESMAVFEQHCKMAQEYMKVQTEIALLLQRKQELVAELDQDEKDQQNTSRLVQEHKKLLDENKSLSTYYQQCKKQLEVIRSQQQKRQGTS | binding (HA-GSK3β (WT) [4]): binds; binding (HA-GSK3β K183R mutant): binds
6 |  |  |  | binds | TAB1 (transfected) (protein, UniProt Q15750 1-504) MAAQRRSLLQSEQQPSWTDDLPLCHLSGVGSASNRSYSADGKGTESHPPEDSWLKFRSENNCFLYGVFNGYDGNRVTNFVAQRLSAELLLGQLNAEHAEADVRRVLLQAFDVVERSFLESIDDALAEKASLQSQLPEGVPQHQLPPQYQKILERLKTLEREISGGAMAVVAVLLNNKLYVANVGTNRALLCKSTVDGLQVTQLNVDHTTENEDELFRLSQLGLDAGKIKQVGIICGQESTRRIGDYKVKYGYTDIDLLSAAKSKPIIAEPEIHGAQPLDGVTGFLVLMSEGLYKALEAAHGPGQANQEIAAMIDTEFAKQTSLDAVAQAVVDRVKRIHSDTFASGGERARFCPRHEDMTLLVRNFGYPLGEMSQPTPSPAPAAGGRVYPVSVPYSSAQSTSKTSVTLSLVMPSQGQMVNGAHSASTLDEATPTLTNQSPTLTLQSTNTHTQSSSSSSDGGLFRSRPAHSLPPGEDGRVEPYVDFAEFYRLWSVDHGEQSVVTAP | 
7 |  |  |  |  | transforming growth factor β-activated kinase 1 (TAK1), endogenous (enzyme, UniProt Q62073 1-579) MSTASAASSSSSSSASEMIEAPSQVLNFEEIDYKEIEVEEVVGRGAFGVVCKAKWRAKDVAIKQIESESERKAFIVELRQLSRVNHPNIVKLYGACLNPVCLVMEYAEGGSLYNVLHGAEPLPYYTAAHAMSWCLQCSQGVAYLHSMQPKALIHRDLKPPNLLLVAGGTVLKICDFGTACDIQTHMTNNKGSAAWMAPEVFEGSNYSEKCDVFSWGIILWEVITRRKPFDEIGGPAFRIMWAVHNGTRPPLIKNLPKPIESLMTRCWSKDPSQRPSMEEIVKIMTHLMRYFPGADEPLQYPCQYSDEGQSNSATSTGSFMDIASTNTSNKSDTNMEQVPATNDTIKRLESKLLKNQAKQQSESGRLSLGASRGSSVESLPPTSEGKRMSADMSEIEARIVATAGNGQPRRRSIQDLTVTGTEPGQVSSRSSSPSVRMITTSGPTSEKPARSHPWTPDDSTDTNGSDNSIPMAYLTLDHQLQPLAPCPNSKESMAVFEQHCKMAQEYMKVQTEIALLLQRKQELVAELDQDEKDQQNTSRLVQEHKKLLDENKSLSTYYQQCKKQLEVIRSQQQKRQGTS | binding [3]: binds
8 |  |  |  | binds | TAB2 (transfected) (protein, UniProt Q9NYJ8 1-693) MAQGSHQIDFQVLHDLRQKFPEVPEVVVSRCMLQNNNNLDACCAVLSQESTRYLYGEGDLNFSDDSGISGLRNHMTSLNLDLQSQNIYHHGREGSRMNGSRTLTHSISDGQLQGGQSNSELFQQEPQTAPAQVPQGFNVFGMSSSSGASNSAPHLGFHLGSKGTSSLSQQTPRFNPIMVTLAPNIQTGRNTPTSLHIHGVPPPVLNSPQGNSIYIRPYITTPGGTTRQTQQHSGWVSQFNPMNPQQVYQPSQPGPWTTCPASNPLSHTSSQQPNQQGHQTSHVYMPISSPTTSQPPTIHSSGSSQSSAHSQYNIQNISTGPRKNQIEIKLEPPQRNNSSKLRSSGPRTSSTSSSVNSQTLNRNQPTVYIAASPPNTDELMSRSQPKVYISANAATGDEQVMRNQPTLFISTNSGASAASRNMSGQVSMGPAFIHHHPPKSRAIGNNSATSPRVVVTQPNTKYTFKITVSPNKPPAVSPGVVSPTFELTNLLNHPDHYVETENIQHLTDPTLAHVDRISETRKLSMGSDDAAYTQALLVHQKARMERLQRELEIQKKKLDKLKSEVNEMENNLTRRRLKRSNSISQIPSLEEMQQLRSCNRQLQIDIDCLTKEIDLFQARGPHFNPSAIHNFYDNIGFVGPVPPKPKDQRSIIKTPKTQDTEDDEGAQWNCTACTFLNHPALIRCEQCEMPRHF | 
